# Source: the supplement of paper PMC6411743
# ± gives the standard deviation of the averaged measurements. This is one part of the list.
# Biological target: T1, UniProt Q9Y232 and related entries
# T1 sequence (whole entry): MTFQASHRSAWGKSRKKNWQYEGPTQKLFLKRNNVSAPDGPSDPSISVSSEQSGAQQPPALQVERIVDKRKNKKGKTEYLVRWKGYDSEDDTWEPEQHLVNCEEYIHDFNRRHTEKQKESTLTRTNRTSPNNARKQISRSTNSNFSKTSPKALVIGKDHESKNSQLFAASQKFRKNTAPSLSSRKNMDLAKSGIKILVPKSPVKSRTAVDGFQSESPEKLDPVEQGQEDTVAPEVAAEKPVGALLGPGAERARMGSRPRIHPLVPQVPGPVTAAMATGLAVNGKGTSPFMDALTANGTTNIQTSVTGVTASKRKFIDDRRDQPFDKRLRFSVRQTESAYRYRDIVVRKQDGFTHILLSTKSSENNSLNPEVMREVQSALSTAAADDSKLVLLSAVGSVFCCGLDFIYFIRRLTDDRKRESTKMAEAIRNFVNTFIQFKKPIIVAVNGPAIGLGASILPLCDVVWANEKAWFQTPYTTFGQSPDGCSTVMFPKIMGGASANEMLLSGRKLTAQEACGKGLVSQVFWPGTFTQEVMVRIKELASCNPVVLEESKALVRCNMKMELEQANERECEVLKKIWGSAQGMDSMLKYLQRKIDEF
# Test: NP40-soluble protein abundance relative to vehicle (solubility fold change) (ratio); higher = more soluble protein in presence of GTP
# Experimental: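 Solubility proteome profiling in Jurkat crude lysate. Lysate was treated with Mg-GTP (0.1-10 mM) for 10 min at room temperature and 3 min at 37 °C, then solubilised with 0.8% NP40 and benzonase, followed by ultracentrifugation. Proteins were quantified by TMT10 LC-MS/MS; the value is the NP40-soluble abundance relative to the NP40-processed vehicle, from 3 independent experiments.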
structure (smiles),measurement,setting,value
Nc1nc2c(ncn2[C@@H]2O[C@H](COP(=O)(O)OP(=O)(O)OP(=O)(O)O)[C@@H](O)[C@H]2O)c(=O)[nH]1 [guanosine triphosphate],NP40-soluble protein abundance,concentration: 0.1mM,0.95 ± 0.021
same,NP40-soluble protein abundance,concentration: 0.5mM,0.918 ± 0.03
same,NP40-soluble protein abundance,concentration: 1mM,1.02 ± 0.15
same,NP40-soluble protein abundance,concentration: 2mM,1.04 ± 0.18
same,NP40-soluble protein abundance,concentration: 4mM,1.13 ± 0.29
same,NP40-soluble protein abundance,concentration: 6mM,1.07 ± 0.28
same,NP40-soluble protein abundance,concentration: 8mM,1.14 ± 0.32
same,NP40-soluble protein abundance,concentration: 10mM,1.23 ± 0.34
